Source: patent publication US20230125690A1 (KYUNGPOOK NATIONAL UNIVERSITY INDUSTRY ACADEMIC COOPERATION …, published 2023)
Results are given in words; binding and its absence hold for the method and conditions named. Some entries that bind do so weakly or less than the wild type. Values belong to the binder of their own block, whether it stands above or below them. *1 amine or outer side, *2 acyl side, *3 side chain or, on linkers, in order; H or OH if unused. Where no end group is shown, it is not given here. [ ]: non-standard residue; d: D form. Sac = acetylated serine, O-acetyl-L-serine, CC(=O)OC[C@H](N[*:1])C(=O)[*:2]

Tests used:
[1] = target: T1, mouse COX2 protein with acetylated S565 residue (mouse) (UniProt Q05769); assay: immunofluorescence staining of mouse brain tissue sections
T1 sequence (acetylated serine at S565, looked up): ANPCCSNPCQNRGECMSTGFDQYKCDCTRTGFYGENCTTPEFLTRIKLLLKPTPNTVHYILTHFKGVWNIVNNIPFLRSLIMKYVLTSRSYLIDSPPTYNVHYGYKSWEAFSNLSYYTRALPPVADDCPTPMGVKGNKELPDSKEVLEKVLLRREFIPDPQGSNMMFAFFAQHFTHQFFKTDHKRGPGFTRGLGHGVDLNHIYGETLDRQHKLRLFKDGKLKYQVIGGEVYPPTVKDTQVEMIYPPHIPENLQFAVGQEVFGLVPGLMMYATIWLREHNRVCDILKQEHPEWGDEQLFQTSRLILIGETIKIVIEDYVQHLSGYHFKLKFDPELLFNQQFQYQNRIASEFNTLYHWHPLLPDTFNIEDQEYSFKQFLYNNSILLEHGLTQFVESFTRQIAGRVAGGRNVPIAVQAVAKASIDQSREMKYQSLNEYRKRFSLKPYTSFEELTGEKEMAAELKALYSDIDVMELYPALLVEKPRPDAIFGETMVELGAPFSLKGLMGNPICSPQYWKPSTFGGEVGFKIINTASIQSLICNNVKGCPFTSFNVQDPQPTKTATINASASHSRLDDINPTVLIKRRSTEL

[2] = target: T1, mouse COX2 protein with acetylated S565 residue (mouse); assay: sandwich ELISA on mouse PBMC lysates, plate coated with 44C7C8
[3] = target: T1, mouse COX2 protein with acetylated S565 residue (mouse); assay: sandwich ELISA on mouse PBMC lysates, plate coated with 9F7-2

binding [1]: binds | binding [2]: binds
B1: monoclonal antibody 44C7C8 (antibody, V domains shown)
VH: DVQLQESGPGLVKPSQSLSLTCSVTGYSITSGYYWNWIRQFPGNKLEWMGYISYDGSNNYNPSLKNRISITRDTYKKQFFLKLNSVTTEDTATYYCARGADYYGNTYFYFDVWGAGTTVTVSS
VL: DIVMSQSPSSLAVSVEEKVNMSCKSSQSLLYSRNQKNYLAWYQQKPGQSPKLLIYWASTRESGVPDRFTGSGAGTDFTLTISSVKAEDLAVYYCQQYYTYPFTFGSGTKLEIK
notes: the isotype and constant regions are not; The methods call it 44C7F5 or 44C75F and the results call it 44C7C8; also called 44C7F5; 44C75F

binding [1]: binds | binding [3]: binds
B2: monoclonal antibody 9F7-2 (antibody, V domains shown)
VH: QVQLQQSGAELVRPGTSVKISCKASGYTFTDYLLGWVKQRPGHGLEWIGDIYPGGTYIKYNEKFKGKATLTADTSSSTAYMQLSSLTSEDSAVYFCARGRNDEKGDYWGQGTSVTVSS
VL: DVLMTQTPLSLPVSLGDQASISCRSSQSIVHRNGFTYLEWYLQKPGQSPKLLIYQVSNRFSGVPDRFSGSGSGTDFTLKISRVEAEDLGVYYCFQGSHVPPTFGGGTKLEIK
notes: Clones were screened for IgG expression; the isotype and constant regions are not
